Earlier results, collected in patent US9115073B2, “1,3-diphenylpropane derivatives, preparations and uses thereof” (GENFIT, priority 2011, dated 2015).
For at least one compound, name, drawing or mass did not settle the structure.

Settings: 16-year mortality follow-up of the BIP trial; cited from earlier work

## CC(C)(Oc1ccc(CCNC(=O)c2ccc(Cl)cc2)cc1)C(=O)O [bezafibrate]
  reduction in the risk of long-term mortality compared with placebo-allocated patients: 11%
